Assay results published in article PMC5665977.
These are yes or no findings as the source states them, for the method shown. In cells and extracts the contact can be indirect. Some binding calls cover weakened binding; strength is not graded here. For part of these data: Tags and fused reporters may be left off the sequences shown.

Amino acid sequences for entries named in this document (tags omitted). Residues count along the entry.
UniProt P00830, residues 34-511: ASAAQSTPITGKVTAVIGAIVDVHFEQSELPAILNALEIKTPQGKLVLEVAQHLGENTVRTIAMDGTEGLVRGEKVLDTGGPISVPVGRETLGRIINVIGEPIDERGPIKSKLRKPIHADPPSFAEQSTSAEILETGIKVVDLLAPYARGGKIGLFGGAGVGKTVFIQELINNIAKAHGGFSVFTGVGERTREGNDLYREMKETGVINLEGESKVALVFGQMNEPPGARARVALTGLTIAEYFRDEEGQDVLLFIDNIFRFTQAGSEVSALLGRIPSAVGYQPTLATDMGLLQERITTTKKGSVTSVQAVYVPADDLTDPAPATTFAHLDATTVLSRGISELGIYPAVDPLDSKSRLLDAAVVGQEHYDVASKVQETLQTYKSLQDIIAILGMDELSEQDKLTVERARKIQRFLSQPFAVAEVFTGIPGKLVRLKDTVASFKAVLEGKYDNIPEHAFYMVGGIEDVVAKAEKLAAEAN

What was measured:
[1] = molecular target: T1, Ina22^FLAG (S. cerevisiae) (UniProt P40576); experiment: co-IP + native gel or EMSA; native anti-FLAG isolation of Ina22^FLAG complexes from chloramphenicol-pretreated mitochondria after in organello labelling; BN-PAGE, second dimension SDS-PAGE, autoradiography and western blotting
T1 sequence: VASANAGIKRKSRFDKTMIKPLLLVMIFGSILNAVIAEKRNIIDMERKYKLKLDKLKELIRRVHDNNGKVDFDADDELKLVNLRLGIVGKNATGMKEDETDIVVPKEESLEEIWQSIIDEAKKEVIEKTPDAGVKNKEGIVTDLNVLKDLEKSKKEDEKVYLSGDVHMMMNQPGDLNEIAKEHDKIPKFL

[2] = molecular target: T2, Atp10^ProtA (S. cerevisiae) (UniProt P18496); experiment: co-IP; IgG-affinity chromatography of Atp10^ProtA; mitochondria (wild-type or ina22Δ background, control or chloramphenicol-pretreated, in part after in organello [35S] labelling) solubilised in 1% digitonin, 160 mM NaCl, 20 mM Tris-HCl pH 7.5, 10% glycerol (low stringency), 4 °C
T2 sequence: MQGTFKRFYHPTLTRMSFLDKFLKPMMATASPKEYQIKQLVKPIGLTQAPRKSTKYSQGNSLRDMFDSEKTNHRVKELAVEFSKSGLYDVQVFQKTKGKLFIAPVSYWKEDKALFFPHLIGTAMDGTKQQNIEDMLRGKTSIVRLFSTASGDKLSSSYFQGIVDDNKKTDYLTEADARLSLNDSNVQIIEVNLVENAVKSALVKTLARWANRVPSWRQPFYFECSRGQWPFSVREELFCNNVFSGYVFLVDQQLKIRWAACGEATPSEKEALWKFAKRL

[3] = molecular target: T3, Ina22 (S. cerevisiae (endogenous in BY4741 mitochondria)) (UniProt P40576); experiment: co-IP; rabbit antiserum (anti-Ina22, anti-Ina17 or anti-Atp23) coupled to Protein A sepharose; mitochondria solubilised in 1% digitonin, 160 mM NaCl, 20 mM Tris-HCl pH 7.5, 10% glycerol, 4 °C; wild-type or ina22Δ mitochondria, control or chloramphenicol-pretreated, in part after in organello [35S] labelling
T3 sequence: T1 sequence

[4] = molecular target: T4, Ina17 (S. cerevisiae (endogenous in BY4741 mitochondria)) (UniProt Q02888); experiment: as above
T4 sequence: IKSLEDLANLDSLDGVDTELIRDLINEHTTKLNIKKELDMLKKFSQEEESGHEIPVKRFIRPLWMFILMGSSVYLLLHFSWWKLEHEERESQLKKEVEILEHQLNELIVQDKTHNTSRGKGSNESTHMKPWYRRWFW

[5] = molecular target: T2, Atp10^ProtA (S. cerevisiae); experiment: co-IP + native gel or EMSA; Atp10^ProtA complexes purified by IgG-affinity chromatography, eluted natively by TEV cleavage, analysed by BN-PAGE (in part second dimension SDS-PAGE) with western blotting or autoradiography
[6] = molecular target: T2, Atp10^ProtA (S. cerevisiae); experiment: co-IP; two-step: Atp10^ProtA complexes isolated natively by IgG-affinity chromatography and TEV cleavage, the eluate then immunoprecipitated with anti-Atp2 antibodies or control pre-immune serum; western blotting
[7] = molecular target: Atp2 (S. cerevisiae (endogenous in BY4741-derived mitochondria)) (UniProt P00830); experiment: as above
[8] = molecular target: T1, Ina22^FLAG (S. cerevisiae); experiment: cross-linking; chemical crosslinking of mitochondria (250 μM cross-linker, 20 mM HEPES pH 7.4, 100 mM NaCl, on ice 30 min), in part after radiolabeling of mitochondrial-encoded proteins; Ina22^FLAG purified under denaturing conditions (1% SDS, then Triton X100); autoradiography or western blotting
[9] = molecular target: T5, Cbp3^ProtA (S. cerevisiae) (UniProt P21560); experiment: co-IP; IgG-affinity chromatography of Cbp3, Cbp4 or Cbp6 with a C-terminal Protein A tag from mitochondria, in part after radiolabeling of mitochondrial-encoded proteins
T5 sequence: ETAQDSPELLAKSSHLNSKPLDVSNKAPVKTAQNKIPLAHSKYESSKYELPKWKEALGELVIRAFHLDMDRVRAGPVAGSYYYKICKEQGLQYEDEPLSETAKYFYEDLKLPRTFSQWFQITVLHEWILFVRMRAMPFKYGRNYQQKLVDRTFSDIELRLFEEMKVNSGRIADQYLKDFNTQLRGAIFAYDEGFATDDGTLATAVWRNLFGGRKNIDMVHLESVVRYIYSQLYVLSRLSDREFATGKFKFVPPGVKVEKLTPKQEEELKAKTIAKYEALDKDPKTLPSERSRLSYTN

[10] = molecular target: T5, Cbp3^ProtA (S. cerevisiae); experiment: co-IP + native gel or EMSA; isolated Cbp3^ProtA-containing complexes analysed by BN-PAGE and second dimension SDS-PAGE

B1: Atp23 (enzyme, UniProt P53722 1-227)
chain: MNSSGDNAGFEWWRRTMQYKTGIGLTPEEKTRYEDDSKARELKKECLKCYEYRDWMLKYSPTVRFMVQAITKLNKGSDSKFDDSKIICDYCPDWKGGGFHPELGILLCQNRLRDKWHLEDTLSHELIHYFDDLKWQIDWLNLKHHACSEIRASSLSGECRFWEEFKRRGFRTGFHVARGHQDCVRRRAIISVSGNPNCQSKEHAAKIVDEVWDSCFADTRPFDEIYR
- binding [1]: binds
- binding [2]: binds
- binding [3]: binds
- binding [4]: binds
- binding [5]: binds

B2: Ina22 fragment f1 (domain or fragment, UniProt P40576 27-188)
chain: VASANAGIKRKSRFDKTMIKPLLLVMIFGSILNAVIAEKRNIIDMERKYKLKLDKLKELIRRVHDNNGKVDFDADDELKLVNLRLGIVGKNATGMKEDETDIVVPKEESLEEIWQSIIDEAKKEVIEKTPDAGVKNKEGIVTDLNVLKDLEKSKKEDEKVYL
- binding [4]: binds

B3: Atp4 (protein, UniProt P05626 36-244)
chain: MSSTPEKQTDPKAKANSIINAIPGNNILTKTGVLGTSAAAVIYAISNELYVINDESILLLTFLGFTGLVAKYLAPAYKDFADARMKKVSDVLNASRNKHVEAVKDRIDSVSQLQNVAETTKVLFDVSKETVELESEAFELKQKVELAHEAKAVLDSWVRYEASLRQLEQRQLAKSVISRVQSELGNPKFQEKVLQQSISEIEQLLSKLK
- binding [6]: binds
- binding [7]: binds
- binding [8]: binds
- binding [5]: binds

B4: Atp5 (protein, UniProt P09457 18-212)
chain: ASKAAAPPPVRLFGVEGTYATALYQAAAKNSSIDAAFQSLQKVESTVKKNPKLGHLLLNPALSLKDRNSVIDAIVETHKNLDGYVVNLLKVLSENNRLGCFEKIASDFGVLNDAHNGLLKGTVTSAEPLDPKSFKRIEKALSASKLVGQGKSLKLENVVKPEIKGGLIVELGDKTVDLSISTKIQKLNKVLEDSI
- binding [6]: binds
- binding [7]: binds

B5: Ina22 fragment f2 (domain or fragment, UniProt P40576 27-168)
chain: VASANAGIKRKSRFDKTMIKPLLLVMIFGSILNAVIAEKRNIIDMERKYKLKLDKLKELIRRVHDNNGKVDFDADDELKLVNLRLGIVGKNATGMKEDETDIVVPKEESLEEIWQSIIDEAKKEVIEKTPDAGVKNKEGIVT
- binding [4]: binds

B6: cytochrome b (protein, UniProt P00163 1-385)
chain: MAFRKSNVYLSLVNSYIIDSPQPSSINYWWNMGSLLGLCLVIQIVTGIFMAMHYSSNIELAFSSVEHIMRDVHNGYILRYLHANGASFFFMVMFMHMAKGLYYGSYRSPRVTLWNVGVIIFILTIATAFLGYCCVYGQMSHWGATVITNLFSAIPFVGNDIVSWLWGGFSVSNPTIQRFFALHYLVPFIIAAMVIMHLMALHIHGSSNPLGITGNLDRIPMHSYFIFKDLVTVFLFMLILALFVFYSPNTLGHPDNYIPGNPLVTPASIVPEWYLLPFYAILRSIPDKLLGVITMFAAILVLLVLPFTDRSVVRGNTFKVLSKFFFFIFVFNFVLLGQIGACHVEVPYVLMGQIATFIYFAYFLIIVPVISTIENVLFYIGRVNK
- binding [8]: binds
- binding [9]: binds
- binding [3]: binds
- binding [10]: binds

B7: Cbp4 (protein, UniProt P37267 1-147)
chain: MERPLWVRWLKVYAIGGAIIGSGFLLFKYTTPTDQQLISQLSPELRLQYEREKKLRQSEQQALMKIVKETSQSDDPIWKTGPLQSPWERNGDNVQSRDHFAKVRAEEVQKEELARIRNELSQLRSETEEKTKEIVQDKQVKSWWRFW
- binding [10]: binds
